Data on two molecules can be found in PMC5317164.

Results are given in words; binding and its absence hold for the method and conditions named. In cells and extracts the contact can be indirect. Some results given as binding are weak or reduced against the parent protein; the word gives no strength.

Test [1] deals with T1, Vinculin (VCL), endogenous in adult mouse heart (mouse (endogenous in heart)) (UniProt Q64727).
T1 sequence: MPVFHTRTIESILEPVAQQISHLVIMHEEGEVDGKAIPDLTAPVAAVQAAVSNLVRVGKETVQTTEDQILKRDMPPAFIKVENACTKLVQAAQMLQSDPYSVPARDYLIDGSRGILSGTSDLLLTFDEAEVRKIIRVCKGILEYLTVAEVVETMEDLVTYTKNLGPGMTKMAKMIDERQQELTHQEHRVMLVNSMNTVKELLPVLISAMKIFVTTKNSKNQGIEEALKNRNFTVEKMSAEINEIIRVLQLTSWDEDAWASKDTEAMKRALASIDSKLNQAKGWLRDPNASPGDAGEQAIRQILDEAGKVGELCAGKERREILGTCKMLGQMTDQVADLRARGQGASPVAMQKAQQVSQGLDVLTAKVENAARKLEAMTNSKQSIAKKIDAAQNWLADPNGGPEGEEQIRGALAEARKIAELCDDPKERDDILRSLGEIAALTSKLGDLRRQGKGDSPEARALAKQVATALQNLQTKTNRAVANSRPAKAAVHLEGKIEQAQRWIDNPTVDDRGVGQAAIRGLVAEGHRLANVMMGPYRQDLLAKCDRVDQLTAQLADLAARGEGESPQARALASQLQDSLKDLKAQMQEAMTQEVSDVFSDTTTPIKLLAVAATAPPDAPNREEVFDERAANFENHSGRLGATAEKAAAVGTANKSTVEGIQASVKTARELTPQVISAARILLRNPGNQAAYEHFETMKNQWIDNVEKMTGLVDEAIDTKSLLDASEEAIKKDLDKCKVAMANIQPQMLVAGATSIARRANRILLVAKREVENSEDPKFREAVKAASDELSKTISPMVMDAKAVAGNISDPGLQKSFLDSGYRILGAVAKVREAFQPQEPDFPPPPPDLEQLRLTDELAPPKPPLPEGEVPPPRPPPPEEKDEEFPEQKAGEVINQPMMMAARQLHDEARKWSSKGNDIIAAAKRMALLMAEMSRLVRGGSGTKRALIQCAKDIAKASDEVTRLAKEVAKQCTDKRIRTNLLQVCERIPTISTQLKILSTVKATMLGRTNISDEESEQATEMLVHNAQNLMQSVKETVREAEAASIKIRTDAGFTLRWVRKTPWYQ
In words: co-IP; adult mouse heart homogenate in RIPA buffer, 1.0 mg a reaction; 25 ug VCL or SCN5A antibody immobilised on agarose resin (Pierce direct IP kit), 4 °C overnight; Western blot with anti-SCN5A or anti-VCL.

In test [2] the target is SCN5A (cardiac sodium channel), endogenous in adult mouse heart (mouse (endogenous in heart)) (UniProt Q9JJV9). The description is as above.

With “SCN5A (cardiac sodium channel), endogenous in adult mouse heart (from UniProt Q9JJV9 1-2019)”, in test [1], the binding result was “binds”.

B1: Vinculin (VCL), endogenous in adult mouse heart (protein, UniProt Q64727 1-1066)
chain: MPVFHTRTIESILEPVAQQISHLVIMHEEGEVDGKAIPDLTAPVAAVQAAVSNLVRVGKETVQTTEDQILKRDMPPAFIKVENACTKLVQAAQMLQSDPYSVPARDYLIDGSRGILSGTSDLLLTFDEAEVRKIIRVCKGILEYLTVAEVVETMEDLVTYTKNLGPGMTKMAKMIDERQQELTHQEHRVMLVNSMNTVKELLPVLISAMKIFVTTKNSKNQGIEEALKNRNFTVEKMSAEINEIIRVLQLTSWDEDAWASKDTEAMKRALASIDSKLNQAKGWLRDPNASPGDAGEQAIRQILDEAGKVGELCAGKERREILGTCKMLGQMTDQVADLRARGQGASPVAMQKAQQVSQGLDVLTAKVENAARKLEAMTNSKQSIAKKIDAAQNWLADPNGGPEGEEQIRGALAEARKIAELCDDPKERDDILRSLGEIAALTSKLGDLRRQGKGDSPEARALAKQVATALQNLQTKTNRAVANSRPAKAAVHLEGKIEQAQRWIDNPTVDDRGVGQAAIRGLVAEGHRLANVMMGPYRQDLLAKCDRVDQLTAQLADLAARGEGESPQARALASQLQDSLKDLKAQMQEAMTQEVSDVFSDTTTPIKLLAVAATAPPDAPNREEVFDERAANFENHSGRLGATAEKAAAVGTANKSTVEGIQASVKTARELTPQVISAARILLRNPGNQAAYEHFETMKNQWIDNVEKMTGLVDEAIDTKSLLDASEEAIKKDLDKCKVAMANIQPQMLVAGATSIARRANRILLVAKREVENSEDPKFREAVKAASDELSKTISPMVMDAKAVAGNISDPGLQKSFLDSGYRILGAVAKVREAFQPQEPDFPPPPPDLEQLRLTDELAPPKPPLPEGEVPPPRPPPPEEKDEEFPEQKAGEVINQPMMMAARQLHDEARKWSSKGNDIIAAAKRMALLMAEMSRLVRGGSGTKRALIQCAKDIAKASDEVTRLAKEVAKQCTDKRIRTNLLQVCERIPTISTQLKILSTVKATMLGRTNISDEESEQATEMLVHNAQNLMQSVKETVREAEAASIKIRTDAGFTLRWVRKTPWYQ
B1: the binding entry in test [2] is recorded as “binds”.
